Patent US11365216B2, “Antiviral immunotropic agent for the treatment of acute respiratory viral infections” (PVP LABS PTE. LTD., priority 2018, dated 2022)
At least one compound was matched to its structure with a doubt left.

Tested on: IFN-α
Assay: interferon-inducing effect in mice (ELISA of blood plasma)
Format: in vivo
Conditions: 24 hours after administration; Dalargin 1 mg/kg, ARBIDOL intragastrically; versus control groups
Description: The experiments were performed in 40 CBA×C57BI/6/male mice with a body weight of 20-25 g. The animals were randomised in 4 groups (of 10 animals each): two active groups (receiving Dalargin or ARBIDOL) and two control groups. One control group was intended for determining baseline INF levels (before the start of the experiment), the other group was intended for determining INF levels at 24 hours after the administration of placebo (saline), ensuring the equivalence of conditions.
Dalargin was administered at a dose of 1 mg/kg, which is equivalent to a human dose of 5-6 mg. ARBIDOL was administered intragastrically as a suspension premix in 1% starch gel. Statistical analysis was performed using the Bonferroni correction for multiple testing.
IFN-α levels in the blood plasma of mice was measured at 24 hours after the administration of the drugs. Blood for interferon determination was sampled from the heart under Nembutal anaesthesia (60 mg/kg). […] IFN levels were determined using commercially available enzyme-linked immunosorbent assay (ELISA) kits manufactured by VeriKine™ (USA). […]
The test samples and diluted standards were applied to the plate in duplicate. […] The activity of bound peroxidase was measured on a UNIPLAN™ (Picon) immunoassay analyser at 450 nm.

With `CCOC(=O)c1c(CSc2ccccc2)n(C)c2cc(Br)c(O)c(CN(C)C)c12` [ARBIDOL, reference compound] the “IFN-α level in blood plasma/serum” value was “Numerical (but insignificant) elevation”.
